Data: US10017580B2, “Humanized anti-Tn-MUC1 antibodies and their conjugates” (ADC THERAPEUTICS S.A., priority 2014, dated 2018)

B1: Ab4: anti-Tn MUC 1 antibody comprising a VH domain according to SEQ ID NO. 9 and a VL domain according to SEQ ID NO. 33 (antibody, V domains shown)
VH: QVQLVQSGAEVKKTGSSVKVSCKASGYTFTDHAIHWVRQAPGQALEWMGHFSPGNTDIKYNDKFKGRVTLTVDRSMSTAYMELSSLRSEDTAMYYCKTSTFFFDYWGQGTMVTVSS
VL: DIVMTQSPLSLPVTPGEPASISCKSSQSLLNSGDQKNYLTWYLQKPGQSPQLLIYWASTRESGVPDRFSGSGSGTDFTLKISRVEAEDVGVYYCQNDYSYPLTFGGGTKVEIK
modifications: Synthetic sequence: Humanized antibody heavy chain variable region 5E5RHA8; Synthetic sequence: Humanized antibody light chain variable region 5E5RKB
B2: Ab6: anti-Tn MUC 1 antibody comprising a VH domain according to SEQ ID NO. 28 and a VL domain according to SEQ ID NO. 33 (antibody, V domains shown)
VH: EVQLVESGAEVKKPGASVEVSCQASGYTFTDHAIHWVRQAPGQGLEWMGHFSPGNTDIKYNDKFKGRVTMTVDRSINTAYMELRRLRSDDTAVYYCKTSTFFFDYWGQGTMVTVSS
VL: B1 VL
modifications: Synthetic sequence: Humanized antibody heavy chain variable region 5E5RHC9; Synthetic sequence: Humanized antibody light chain variable region 5E5RKB
B3: Ab5: anti-Tn MUC 1 antibody comprising a VH domain according to SEQ ID NO. 19 and a VL domain according to SEQ ID NO. 33 (antibody, V domains shown)
VH: EVQLVQSGAEVKKPGESLKISCKISGYIFTDHAIHWVRQMPGKGLEWMGHFSPGNTDIKYNDKFKGQVTLSVDRSINTAYLQWSSLKASDTAIYFCKTSTFFFDYWGQGTRVTVSS
VL: B1 VL
modifications: Synthetic sequence: Humanized antibody heavy chain variable region 5E5RHB10; Synthetic sequence: Humanized antibody light chain variable region 5E5RKB

Key:
[1] = Static HEK293T transient transfection, IgG quantitation by ELISA (protocols 2 and 3); conditions: for Static HEK293T transient IgG: expression level in conditioned medium; for Expression level of the construct (in words): protocols 2 and 3
[2] = Shaken HEK293F transient transfection culture (protocol 7), IgG quantitation; conditions: expression level in shake culture medium

Row | Molecule | Static HEK293T transient IgG [1] | Expression level of the construct (in words) [1] | Shaken HEK293F transient IgG [2]
1 | B1 | 10.9 µg/mL | expressed well | 18.9 µg/mL
2 | B2 | 0.18 µg/mL | low | 1.0 µg/mL
3 | B3 | 3.3 µg/mL |  | 17.2 µg/mL
